# These are yes or no findings as the source states them, for the method shown. For some of these results: Binding can be weak; no strength is given. For some of these results: Binding seen in cells or lysates may run through a third protein.
# B1: Aleuria aurantia lectin (AAL) (protein, UniProt P18891 2-313, looked up)
# chain: PTEFLYTSKIAAISWAATGGRQQRVYFQDLNGKIREAQRGGDNPWTGGSSQNVIGEAKLFSPLAAVTWKSAQGIQIRVYCVNKDNILSEFVYDGSKWITGQLGSVGVKVGSNSKLAALQWGGSESAPPNIRVYYQKSNGSGSSIHEYVWSGKWTAGASFGSTVPGTGIGATAIGPGRLRIYYQATDNKIREHCWDSNSWYVGGFSASASAGVSIAAISWGSTPNIRVYWQKGREELYEAAYGGSWNTPGQIKDASRPTPSLPDTFIAANSSGNIDISVFFQASGVSLQQWQWISGKGWSIGAVVPTGTPAGW
# Columns and labels:
# [1] = target: V5-tagged HLA-DRB1 N48G (N48G glyco-fucomutant) (human); assay: AAL lectin pulldown and immunoblot, WM793 cells
# [2] = target: V5-tagged HLA-DRB1 T129A (T129A glyco-fucomutant) (human); assay: AAL lectin pulldown and immunoblot, WM793 cells
# [3] = target: V5-tagged wild-type HLA-DRB1 (WT) (human); assay: AAL lectin pulldown and immunoblot, WM793 cells
# [4] = target: V5-tagged wild-type HLA-DRB1 (WT) (human); assay: V5 immunoprecipitation and immunoblot analysis, WM793 cells
binder,measurement,setting,value
B1,binding,[1],no binding
same,binding,[2],binds
same,binding,[3],binds
same,binding,[4],binds

# Reference: US20240197761A1, “FUCOSYLATION AND IMMUNE MODULATION IN CANCER” (H. LEE MOFFITT CANCER CENTER AND RESEARCH INSTITUTE, INC., priority 2021, published 2024)
